# Experimental data: PubChem BioAssay AID2284382 (EPA ToxCast)
# The entries are a selection whose mix differs from that of the whole data set. Records with an inconclusive call do not appear. Calls of active or inactive are those of the source. The calls were made as follows: active = hit-call score of the fitted dose curve at least 0.9, where 1 is the maximum; inconclusive = response in the unintended direction; inactive = score below 0.9.
# Assay: CCTE_Mundy_HCI_iCellGABA_NOG_NeuriteLength: CCTE's Neurite Outgrowth Assay in iCellGABA cells for Neurite Length, Mundy Lab
# Procedure: CCTE_Mundy_HCI_iCellGABA_NOG is a multiplexed, cell-based-readout assay that uses iCell GABANeurons from FUJIFILM Cellular Dynamics, Inc. (FCDI), human GABAergic enriched neurons derived from induced pluripotent stem (iPS) cells, with measurements taken at 50.33 hours after chemical dosing in a microplate: 96-well plate.CCTE_Mundy_HCI_iCellGABA_NOG_NeuriteLength is one of four components of the CCTE_Mundy_HCI_iCellGABA_NOG assay. It measures neurite outgrowth related to neurite length using High Content Imaging of fluorescently labelled markers.Data from the assay component CCTE_Mundy_HCI_iCellGABA_NOG_NeuriteLength was analyzed at the endpoint CCTE_Mundy_HCI_iCellGABA_NOG_NeuriteLength in the positive analysis fitting direction relative to DMSO as the negative control and baseline of activity. Using a type of morphology reporter, loss-of-signal activity can be used to understand developmental effects.
# Exposure starts 2 hours post-plating by adding 10 ul of the working solution to 90 ul of media in the wells for a 1/10 dilution. […] A Cellomics ArrayScan VTi HCS Reader is used for automated image acquisition and analysis of neurite outgrowth.
row,Compound,AC50
1,CCOP(=S)(OCC)Oc1cc(C)nc(C(C)C)n1,active: 69 µM
